Some entries share one result that the patent states for a list of compounds. At least one structure is not confirmed: it was looked up by name or label, or the drawing left a doubt.
Tested on: NOS3-NLuc-2A-tdTomato hPSCs
Assay: Arterial endothelial cell (AEC) differentiation, flow cytometry for CD144+ DLL4+ cells
Type: cell-based, human
Settings: compound added from day 2 to day 6 of differentiation; dose-dependent (FIG. 3A)
Text: FIG. 3A is a bar graph showing arterial endothelial cell differentiation in response to treatment on days 2 through 6 of different concentrations of compounds identified in compound screening assays. Differentiated arterial endothelial cells were identified by flow cytometry for CD144+ DLL4+ cells after 6 days of treatment.
FIG. 3B is a bar graph showing arterial endothelial cell differentiation in response to three specific compounds at day 3-6 of differentiation.
NOS3-NLuc-Tom human pluripotent stem cells (hPSCs), prepared as set forth above, were cultured in E8BAC medium for two days (day 0-2) to induce mesoderm formation. On days 2-5 cells received Five Factor medium daily, and AEC collected on day 6. More than 90% of the resulting cells were CD144^+CXCR4^+DLL4^+, consistent with differentiation to AEC cells.
C21-C33 compounds were further tested to confirm their effects. […] Thus, the effects of C21, C22, and C24-C31 on AEC differentiation from NOS3-NLuc-2A-tdTomato hPSCs were measured.

Compound	percentage of AEC on day 6 compared to control treatment
C[C@H]1C(=O)CC[C@@H]2[C@]1(C)CC[C@H]1[C@@]2(C)CC[C@@]2(C)[C@@H]3CC(C)(C)CC[C@]3(C)CC[C@]12C [C27, Friedelin]	except
CC/C=C\C/C=C\C/C=C\C/C=C\C/C=C\C/C=C\CCC(=O)O [C26, Docosahexaenoic acid (22:6 n-3)]	except
